PubChem BioAssay AID1508597, Cure First | 2020
The whole screen tested about 2,100 reagents; below is a random part of them. 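Calls flag viability under 80% in either arm, not effects specific to rucaparib; the reference for percent is not stated.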 Some reagents were tested in more than one well and are listed for each. Not stated in the record: the 100% reference.

Screen: 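Knock-downs altering ovarian cancer cell survival with or without PARP inhibitor rucaparib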 (primary screen)
Cell system: human ovarian carcinoma lines grown from tumours: OCI-P5x (papillary serous) and OCI-C5x (clear cell)
Knock-down reagent: siRNA pool against human genes, 1.25 pmol siRNA per well
Time to read-out: 72 h or 96 h, depending on the cell culture
Treatment: rucaparib 20 µM (about IC30) or vehicle, present until read-out
Detection: 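Luminescent ATP-based viability assay read 72 or 96 h after transfection, depending on culture, given as normalised percent viability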
Scale: viability, normalised: higher = more viable cells remaining
Rule for the call: 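Active when normalised viability falls below 80 percent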
Calls: active = viability under 80%; inactive = viability 80% or more

gene | rucaparib or vehicle | cell line | technical replicate | viability, normalised (%) | Call
PAK4 | Rucaparib | OCI-C5x (clear cell) | 1 | 54.4 | active
PAK4 | Rucaparib | OCI-C5x (clear cell) | 2 | 46.4 | active
PAK4 | Rucaparib | OCI-C5x (clear cell) | 3 | 50.1 | active
PAK4 | Rucaparib | OCI-P5x (serous) | 1 | 103 | inactive
PAK4 | Rucaparib | OCI-P5x (serous) | 2 | 81 | inactive
PAK4 | Rucaparib | OCI-P5x (serous) | 3 | 97.3 | inactive
PAK4 | Vehicle | OCI-C5x (clear cell) | 1 | 62.5 | active
PAK4 | Vehicle | OCI-C5x (clear cell) | 2 | 63.7 | active
PAK4 | Vehicle | OCI-C5x (clear cell) | 3 | 65.5 | active
PAK4 | Vehicle | OCI-P5x (serous) | 1 | 106 | inactive
PAK4 | Vehicle | OCI-P5x (serous) | 2 | 90.8 | inactive
PAK4 | Vehicle | OCI-P5x (serous) | 3 | 106 | inactive
DHX36 | Rucaparib | OCI-C5x (clear cell) | 1 | 38.6 | active
DHX36 | Rucaparib | OCI-C5x (clear cell) | 2 | 34.7 | active
DHX36 | Rucaparib | OCI-C5x (clear cell) | 3 | 57 | active
DHX36 | Rucaparib | OCI-P5x (serous) | 1 | 53 | active
DHX36 | Rucaparib | OCI-P5x (serous) | 2 | 61.8 | active
DHX36 | Rucaparib | OCI-P5x (serous) | 3 | 66.2 | active
DHX36 | Vehicle | OCI-C5x (clear cell) | 1 | 43.7 | active
DHX36 | Vehicle | OCI-C5x (clear cell) | 2 | 56 | active
DHX36 | Vehicle | OCI-C5x (clear cell) | 3 | 52.4 | active
DHX36 | Vehicle | OCI-P5x (serous) | 1 | 74.6 | active
DHX36 | Vehicle | OCI-P5x (serous) | 2 | 76.9 | active
DHX36 | Vehicle | OCI-P5x (serous) | 3 | 72.9 | active
MACROD1 | Rucaparib | OCI-C5x (clear cell) | 1 | 52.1 | active
MACROD1 | Rucaparib | OCI-C5x (clear cell) | 2 | 55.5 | active
MACROD1 | Rucaparib | OCI-C5x (clear cell) | 3 | 49.9 | active
MACROD1 | Rucaparib | OCI-P5x (serous) | 1 | 69.1 | active
MACROD1 | Rucaparib | OCI-P5x (serous) | 2 | 73.5 | active
MACROD1 | Rucaparib | OCI-P5x (serous) | 3 | 79 | active
MACROD1 | Vehicle | OCI-C5x (clear cell) | 1 | 59.8 | active
MACROD1 | Vehicle | OCI-C5x (clear cell) | 2 | 67.4 | active
MACROD1 | Vehicle | OCI-C5x (clear cell) | 3 | 64.3 | active
MACROD1 | Vehicle | OCI-P5x (serous) | 1 | 62.8 | active
MACROD1 | Vehicle | OCI-P5x (serous) | 2 | 71.5 | active
MACROD1 | Vehicle | OCI-P5x (serous) | 3 | 74.6 | active

Laid out differently: 6 of the entries above
PAK4, rucaparib or vehicle Rucaparib, cell line OCI-P5x (serous), technical replicate 3
- viability, normalised (%): 97.3
- Call: inactive

PAK4, rucaparib or vehicle Vehicle, cell line OCI-C5x (clear cell), technical replicate 1
- viability, normalised (%): 62.5
- Call: active

PAK4, rucaparib or vehicle Vehicle, cell line OCI-C5x (clear cell), technical replicate 2
- viability, normalised (%): 63.7
- Call: active

PAK4, rucaparib or vehicle Vehicle, cell line OCI-C5x (clear cell), technical replicate 3
- viability, normalised (%): 65.5
- Call: active

PAK4, rucaparib or vehicle Vehicle, cell line OCI-P5x (serous), technical replicate 1
- viability, normalised (%): 106
- Call: inactive

PAK4, rucaparib or vehicle Vehicle, cell line OCI-P5x (serous), technical replicate 2
- viability, normalised (%): 90.8
- Call: inactive

Next reagents:
gene | rucaparib or vehicle | cell line | technical replicate | viability, normalised (%) | Call
KPNA4 | Rucaparib | OCI-C5x (clear cell) | 1 | 48.2 | active
KPNA4 | Rucaparib | OCI-C5x (clear cell) | 2 | 61.7 | active
KPNA4 | Rucaparib | OCI-C5x (clear cell) | 3 | 66.2 | active
KPNA4 | Rucaparib | OCI-P5x (serous) | 1 | 74.2 | active
KPNA4 | Rucaparib | OCI-P5x (serous) | 2 | 81.8 | inactive
KPNA4 | Rucaparib | OCI-P5x (serous) | 3 | 62.6 | active
KPNA4 | Vehicle | OCI-C5x (clear cell) | 1 | 120 | inactive
KPNA4 | Vehicle | OCI-C5x (clear cell) | 2 | 66.4 | active
KPNA4 | Vehicle | OCI-C5x (clear cell) | 3 | 58.9 | active
KPNA4 | Vehicle | OCI-P5x (serous) | 1 | 80.7 | inactive
KPNA4 | Vehicle | OCI-P5x (serous) | 2 | 82.7 | inactive
KPNA4 | Vehicle | OCI-P5x (serous) | 3 | 80.6 | inactive
MED7 | Rucaparib | OCI-C5x (clear cell) | 1 | 50.5 | active
MED7 | Rucaparib | OCI-C5x (clear cell) | 2 | 38.9 | active
MED7 | Rucaparib | OCI-C5x (clear cell) | 3 | 36.9 | active
MED7 | Rucaparib | OCI-P5x (serous) | 1 | 39.1 | active
MED7 | Rucaparib | OCI-P5x (serous) | 2 | 62 | active
MED7 | Rucaparib | OCI-P5x (serous) | 3 | 48.5 | active
MED7 | Vehicle | OCI-C5x (clear cell) | 1 | 45.1 | active
MED7 | Vehicle | OCI-C5x (clear cell) | 2 | 47.5 | active
MED7 | Vehicle | OCI-C5x (clear cell) | 3 | 54.4 | active
MED7 | Vehicle | OCI-P5x (serous) | 1 | 62.4 | active
MED7 | Vehicle | OCI-P5x (serous) | 2 | 63 | active
MED7 | Vehicle | OCI-P5x (serous) | 3 | 54.8 | active
DDX3X | Rucaparib | OCI-C5x (clear cell) | 1 | 34.6 | active
DDX3X | Rucaparib | OCI-C5x (clear cell) | 1 | 61.7 | active
DDX3X | Rucaparib | OCI-C5x (clear cell) | 2 | 30.7 | active
DDX3X | Rucaparib | OCI-C5x (clear cell) | 2 | 79.1 | active
DDX3X | Rucaparib | OCI-C5x (clear cell) | 3 | 42.4 | active
DDX3X | Rucaparib | OCI-C5x (clear cell) | 3 | 35.4 | active
DDX3X | Rucaparib | OCI-P5x (serous) | 1 | 76.7 | active
DDX3X | Rucaparib | OCI-P5x (serous) | 1 | 53.7 | active
DDX3X | Rucaparib | OCI-P5x (serous) | 2 | 68.5 | active
DDX3X | Rucaparib | OCI-P5x (serous) | 2 | 49.1 | active
DDX3X | Rucaparib | OCI-P5x (serous) | 3 | 55.7 | active
DDX3X | Rucaparib | OCI-P5x (serous) | 3 | 68.3 | active
DDX3X | Vehicle | OCI-C5x (clear cell) | 1 | 29.3 | active
DDX3X | Vehicle | OCI-C5x (clear cell) | 1 | 42.6 | active
DDX3X | Vehicle | OCI-C5x (clear cell) | 2 | 34.5 | active
DDX3X | Vehicle | OCI-C5x (clear cell) | 2 | 36.3 | active
DDX3X | Vehicle | OCI-C5x (clear cell) | 3 | 34.7 | active
DDX3X | Vehicle | OCI-C5x (clear cell) | 3 | 38.4 | active
DDX3X | Vehicle | OCI-P5x (serous) | 1 | 53 | active
DDX3X | Vehicle | OCI-P5x (serous) | 1 | 64.8 | active
DDX3X | Vehicle | OCI-P5x (serous) | 2 | 57 | active
DDX3X | Vehicle | OCI-P5x (serous) | 2 | 50.5 | active
DDX3X | Vehicle | OCI-P5x (serous) | 3 | 54.5 | active
DDX3X | Vehicle | OCI-P5x (serous) | 3 | 50 | active
